Measured values from PubChem BioAssay AID1487 (National Center for Advancing Translational Sciences (NCATS), 2009).
The other results are listed elsewhere or left out. These are further read-outs of the screen, such as a control signal, another cell line or another target. No call is given for them. The list favours compounds with an active or inconclusive main result. Potencies come from curve fits of mixed quality, noted in brackets.

Experiment: qHTS Assay for Modulators of Lamin A Splicing
Settings: HeLa LMNA splicing GFP/RFP minigene ratio, 48 h
Method in brief: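 S3 HeLa cells stably expressing lamin A-EGFP splicing minigene plus DsRed2, 600 cells/well, 48 h compound exposure at 37C. Laser-scanning cytometry; analysed as GFP (500-530 nm)/RFP (575-640 nm) total intensity ratio; 0.5% DMSO vehicle.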

[1] = measured here: GFP splicing reporter channel
[2] = measured here: RFP viability control channel

SMILES	AC50 [1]	AC50 [2]
CCOCCCNCc1ccc(OCC(=O)N2CCOCC2)c(OC)c1	11.2 µM [falling, partial curve, poor fit]	0.00501 µM [falling, full curve, poor fit]
CC1(OC(=O)c2ccc(Cl)nc2)C(=O)Cc2cc(-c3ccsc3)ncc2C1=O (stereo not drawn)	3.98 µM [falling, single point]	0.112 µM [falling, partial curve, poor fit]
COc1ccccc1-c1nc(SCC(=O)NCC2CCCO2)c2c(=O)n(C)c(=O)n(C)c2n1 (stereo not drawn)	0.0282 µM [falling, full curve, poor fit]	0.158 µM [falling, full curve]
Cc1cc(C(=O)NN=C2CCCCC2)c2ccccc2n1	–	35.5 µM [rising, single point]
CSc1ccc(C2c3[nH]c4ccccc4c3CCN2C(=O)CCc2ccccc2)cc1 (stereo not drawn)	–	2 µM [rising, full curve]
O=C(c1ccc(F)cc1)C(CN1CCOCC1)c1ccccc1 (stereo not drawn)	–	5.62 µM [rising, single point]
CNC(=S)N(CCc1c(C)[nH]c2ccc(Cl)cc12)Cc1cc(OC)c(OC)c(OC)c1	–	0.224 µM [falling, partial curve, poor fit]
COc1cccc(/C=N/n2c(-c3ccco3)nc3ccccc3c2=O)c1OC	–	0.0501 µM [rising, partial curve, poor fit]
C=CC[n+]1c(-c2ccc(C)cc2)csc1NNC(=O)Nc1ccccc1	35.5 µM [falling, single point]	22.4 µM [falling, single point]
COc1ccc(N/N=C(/C(N)=O)C2=NC(C)(C)Cc3ccccc32)cc1	–	12.6 µM [rising, single point]
CC1CCCN(c2ccc(C(=O)NCc3ccco3)cc2[N+](=O)[O-])C1 (stereo not drawn)	11.2 µM [rising, single point]	14.1 µM [rising, single point]
O=C(NCC(c1cccs1)N1CCOCC1)c1ccccc1NS(=O)(=O)c1cccc([N+](=O)[O-])c1 (stereo not drawn)	–	15.8 µM [rising, partial curve]
CC(C)c1onc(C(=O)NC2CCCC2)c1[N+](=O)[O-]	–	20 µM [rising, single point]
COc1ccc(N2C(=O)CSC2c2cccc(OC)c2OC)cc1 (stereo not drawn)	0.00501 µM [falling, full curve, poor fit]	31.6 µM [rising, single point]
O=C(c1ccccc1)c1coc2c1C(=O)c1ccccc1C2=O	25.1 µM [falling, single point]	–
Nc1cnn(C2CCCO2)c(=O)n1 (stereo not drawn)	0.0794 µM [rising, full curve]	0.0562 µM [rising, full curve, poor fit]
Cc1ccc(C(=O)Nc2ccc(Br)cc2)cc1S(=O)(=O)N1CCOCC1	–	0.02 µM [falling, full curve, poor fit]
O=C(/C=C/c1cccc([N+](=O)[O-])c1)N1CCN(C(=O)c2ccco2)CC1	17.8 µM [rising, single point]	–
C#C[C@]1(O)CC[C@@H]2[C@H]3CCC4=Cc5oncc5C[C@]4(C)[C@@H]3CC[C@@]21C	0.501 µM [falling, full curve, poor fit]	3.55 µM [falling, partial curve, poor fit]
COCCn1c(SCC(=O)/C=C2\N(C)c3ccccc3C2(C)C)nnc1-c1ccncc1	–	15.8 µM [rising, single point]
Cc1cc(C)c(NC(=O)Cn2c(SCC(=O)NCc3ccccc3)nc3ccccc32)c(C)c1	–	4.47 µM [falling, full curve, poor fit]
CCOC(=O)C1CCN(S(=O)(=O)c2cccc(-c3cn4cccnc4n3)c2)CC1	–	35.5 µM [rising, single point]
COc1cc2c(cc1OC)CN(C(=O)c1cc(=O)c3ccccc3o1)CC2	–	5.01 µM [rising, single point]
COC(=O)c1sccc1S(=O)(=O)N(CC(=O)NCc1ccccc1)c1ccccc1	–	0.0112 µM [falling, full curve, poor fit]
COc1ccc(C(=O)c2ccc(Br)cc2)cc1	14.1 µM [falling, single point]	25.1 µM [falling, single point]
Cc1c(C(=O)N(C)Cc2ccccc2)oc2ccc(S(=O)(=O)N3CCCC3)cc12	11.2 µM [rising, partial curve, poor fit]	8.91 µM [rising, partial curve]
COc1ccc(Nc2ncnc3c2cnn3-c2ccc(C)cc2C)cc1	–	5.62 µM [falling, partial curve]
COc1ccc(/C=C/c2nc(N)nc(-c3ccccc3O)n2)cc1OC	–	22.4 µM [rising, partial curve]

SMILES	AC50 [1]	AC50 [2]
O=C(O)CC12CC3CC(C1)CC(n1cncn1)(C3)C2	0.0631 µM [rising, partial curve, poor fit]	0.355 µM [rising, full curve, poor fit]
O=C(N/N=C/c1cccs1)C1COc2ccccc2O1 (stereo not drawn)	–	35.5 µM [rising, single point]
Cc1sc(NC(=O)c2cccs2)nc1-c1ccccc1	11.2 µM [rising, partial curve, poor fit]	15.8 µM [rising, partial curve]
O=C(OCC(=O)N1CCc2ccccc21)c1c2c(nc3ccccc13)CCCC2	–	31.6 µM [rising, single point]
CCC(O)(CC)C(=O)NN(C(=O)CCl)c1ccccc1	–	10 µM [rising, partial curve]
CC(C)(C)OC(=O)N1CCC(c2c(C(=O)N3CCc4ccccc4C3)cnn2-c2ccc(Cl)cc2)CC1	–	35.5 µM [rising, single point]
Nc1nc(NCc2ccco2)nc(N2CCCC2)c1[N+](=O)[O-]	0.224 µM [falling, full curve, poor fit]	0.631 µM [falling, full curve, poor fit]
c1csc(CNc2nc(-c3ccc4c(c3)OCO4)nc3ccccc23)c1	31.6 µM [falling, single point]	35.5 µM [falling, single point]
COc1cccc(Cn2c(=O)c(C)nc3cnc(Nc4cccc(OC)c4)nc32)c1	–	12.6 µM [falling, partial curve]
CCCn1c(C)cc(C(=O)CSc2nc3ccccc3c(=O)n2Cc2ccco2)c1C	–	12.6 µM [rising, partial curve]
CCOC(=O)c1sc(Nc2ccc(C)cc2C)nc1C	8.91 µM [falling, partial curve]	7.08 µM [falling, full curve]
CCN1CCN(C(=S)Nc2ccc(Cl)cc2Cl)CC1	22.4 µM [rising, single point]	22.4 µM [rising, single point]
CC(=O)c1cccc(NC(=O)C(Sc2ncnc3ccccc23)c2ccccc2)c1 (stereo not drawn)	35.5 µM [falling, single point]	–
CCCCN(C(=O)c1cccc(S(=O)(=O)N2CCCCC2)c1)C1CCS(=O)(=O)C1 (stereo not drawn)	–	0.355 µM [falling, full curve, poor fit]
CC(c1nccs1)N(C)c1nc2nonc2nc1N(C)C (stereo not drawn)	0.447 µM [falling, partial curve, poor fit]	0.501 µM [falling, full curve, poor fit]
COc1ccccc1-c1cc(C(F)(F)F)nc(S(=O)(=O)CCCC(=O)Nc2cccnc2Cl)n1	–	2.82 µM [rising, partial curve]
CN(C/C=C\c1ccccc1)Cc1cccc2ccccc12	3.16 µM [falling, single point]	3.16 µM [falling, single point]
Cc1ccccc1C(=O)/C=C1\NC(=O)CS1	12.6 µM [rising, single point]	14.1 µM [rising, single point]
Cc1cccc(C)c1NC(=O)CCCSc1nc2ccccc2s1	–	25.1 µM [rising, single point]
O=C(/C=C/c1ccco1)Nc1ccc(S(=O)(=O)N2CCOCC2)cc1	0.282 µM [falling, partial curve, poor fit]	15.8 µM [falling, partial curve, poor fit]
O=C(Nn1c(Cc2cccs2)nc2ccccc2c1=O)c1cccs1	–	20 µM [rising, single point]
O=C(Cc1cccs1)NCCSc1c(-c2ccc(Cl)cc2)[nH]c2ccccc12	11.2 µM [rising, partial curve, poor fit]	22.4 µM [rising, partial curve]
Cc1cccc(NC(=S)N(C)Cc2cn(C)c3ccccc23)c1	–	17.8 µM [rising, single point]
Brc1cccc(C2CC(c3ccccc3)n3nnnc3N2)c1 (stereo not drawn)	0.794 µM [falling, full curve]	1 µM [falling, full curve]
O=C(Cn1c(=O)sc2ccccc21)Nc1nc2c(s1)CCCC2	–	11.2 µM [rising, single point]
COc1ccccc1Cc1nc2ccccc2nc1SCC(=O)NCCc1ccccc1	0.398 µM [rising, full curve, poor fit]	–
O=c1n(CCCN2CCN(c3cccc(Cl)c3)CC2)nc2ccccn12	0.0708 µM [rising, full curve, poor fit]	14.1 µM [rising, single point]
